Source: PMC11965567

What was measured:
[1] = target: T1, Thioredoxin-interacting protein (TXNIP), overexpressed in HCC-1954 cells, Q9H3M7; test: affinity purification with mass spectrometry; co-IP followed by mass spectrometry in TXNIP-KD MDA-MB-231 cells and TXNIP-OE HCC-1954 cells; cell lysate in IP lysis buffer, antibody or control IgG, sepharose agarose beads, three washes with lysis buffer; three independent experiments; conditions: remark: other sources report otherwise
T1 chain: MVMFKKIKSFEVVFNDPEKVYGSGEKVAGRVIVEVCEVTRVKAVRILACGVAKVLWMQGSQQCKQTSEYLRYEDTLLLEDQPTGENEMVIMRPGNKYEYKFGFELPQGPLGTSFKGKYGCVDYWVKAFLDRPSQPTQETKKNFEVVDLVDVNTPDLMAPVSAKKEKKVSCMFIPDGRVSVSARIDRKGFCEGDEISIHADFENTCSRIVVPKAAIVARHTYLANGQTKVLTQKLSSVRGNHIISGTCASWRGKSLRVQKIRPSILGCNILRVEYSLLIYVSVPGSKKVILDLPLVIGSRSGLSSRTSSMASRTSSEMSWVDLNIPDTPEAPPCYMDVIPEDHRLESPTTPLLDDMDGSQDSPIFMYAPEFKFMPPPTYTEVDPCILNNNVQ

[2] = target: T2, Thioredoxin-interacting protein (TXNIP), endogenous (human (endogenous in MDA-MB-231 and T47D)), Q9H3M7; test: as above; conditions: remark: other sources report otherwise
T2 chain: T1 chain

B1: SLC2A1 (GLUT-1), endogenous, P11166 1-492 (protein)
chain: MEPSSKKLTGRLMLAVGGAVLGSLQFGYNTGVINAPQKVIEEFYNQTWVHRYGESILPTTLTTLWSLSVAIFSVGGMIGSFSVGLFVNRFGRRNSMLMMNLLAFVSAVLMGFSKLGKSFEMLILGRFIIGVYCGLTTGFVPMYVGEVSPTALRGALGTLHQLGIVVGILIAQVFGLDSIMGNKDLWPLLLSIIFIPALLQCIVLPFCPESPRFLLINRNEENRAKSVLKKLRGTADVTHDLQEMKEESRQMMREKKVTILELFRSPAYRQPILIAVVLQLSQQLSGINAVFYYSTSIFEKAGVQQPVYATIGSGIVNTAFTVVSLFVVERAGRRTLHLIGLAGMAGCAILMTIALALLEQLPWMSYLSIVAIFGFVAFFEVGPGPIPWFIVAELFSQGPRPAAIAVAGFSNWTSNFIVGMCFQYVEQLCGPYVFIIFTVLLVLFFIFTYFKVPETKGRTFDEIASGFRQGGASQSDKTPEELFHPLGADSQV
Q: For B1, which binding [1] is on record?
A: The binding was “no binding”.

Q: And the binding [2]?
A: The binding was “no binding”.

B2: NEDD4L, endogenous, Q96PU5 1-975 (protein)
chain: MATGLGEPVYGLSEDEGESRILRVKVVSGIDLAKKDIFGASDPYVKLSLYVADENRELALVQTKTIKKTLNPKWNEEFYFRVNPSNHRLLFEVFDENRLTRDDFLGQVDVPLSHLPTEDPTMERPYTFKDFLLRPRSHKSRVKGFLRLKMAYMPKNGGQDEENSDQRDDMEHGWEVVDSNDSASQHQEELPPPPLPPGWEEKVDNLGRTYYVNHNNRTTQWHRPSLMDVSSESDNNIRQINQEAAHRRFRSRRHISEDLEPEPSEGGDVPEPWETISEEVNIAGDSLGLALPPPPASPGSRTSPQELSEELSRRLQITPDSNGEQFSSLIQREPSSRLRSCSVTDAVAEQGHLPPPSAPAGRARSSTVTGGEEPTPSVAYVHTTPGLPSGWEERKDAKGRTYYVNHNNRTTTWTRPIMQLAEDGASGSATNSNNHLIEPQIRRPRSLSSPTVTLSAPLEGAKDSPVRRAVKDTLSNPQSPQPSPYNSPKPQHKVTQSFLPPGWEMRIAPNGRPFFIDHNTKTTTWEDPRLKFPVHMRSKTSLNPNDLGPLPPGWEERIHLDGRTFYIDHNSKITQWEDPRLQNPAITGPAVPYSREFKQKYDYFRKKLKKPADIPNRFEMKLHRNNIFEESYRRIMSVKRPDVLKARLWIEFESEKGLDYGGVAREWFFLLSKEMFNPYYGLFEYSATDNYTLQINPNSGLCNEDHLSYFTFIGRVAGLAVFHGKLLDGFFIRPFYKMMLGKQITLNDMESVDSEYYNSLKWILENDPTELDLMFCIDEENFGQTYQVDLKPNGSEIMVTNENKREYIDLVIQWRFVNRVQKQMNAFLEGFTELLPIDLIKIFDENELELLMCGLGDVDVNDWRQHSIYKNGYCPNHPVIQWFWKAVLLMDAEKRIRLLQFVTGTSRVPMNGFAELYGSNGPQLFTIEQWGSPEKLPRAHTCFNRLDLPPYETFEDLREKLLMAVENAQGFEGVD
Q: With B2 as the binder, how does the binding [1] read?
A: Its binding is “no binding”.

Q: And the binding [2]?
A: Its binding is “no binding”.

No constants are given. Whether binding was seen depends on the method and setting. Binding seen in cells or lysates may run through a third protein. These calls come from enrichment with a bait or labelling near it, and not all partners need be listed. A no says only that the protein was not detected with the bait.
